Laboratory results published in patent US20070111939A1.
These are yes or no findings as the source states them, for the method shown. Some entries that bind do so weakly or less than the wild type. Tags and fused reporters may be left off the sequences shown.

Key:
[1] = molecular target: T1, recombinant human IL-11 (human) (UniProt P20809); experiment: ELISA (FIG. 4)
T1 sequence (looked up): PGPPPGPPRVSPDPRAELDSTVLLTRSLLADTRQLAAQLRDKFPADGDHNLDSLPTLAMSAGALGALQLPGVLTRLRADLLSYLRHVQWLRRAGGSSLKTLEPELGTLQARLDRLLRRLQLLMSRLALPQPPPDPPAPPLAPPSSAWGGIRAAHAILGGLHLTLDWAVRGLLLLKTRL

[2] = molecular target: T1, recombinant human IL-11 (human); experiment: ELISA, IL-11 coated plate, detection with protein A-HRP, absorbance at 490 nm
[3] = molecular target: T1, recombinant human IL-11 (human); experiment: competition ELISA, fusion protein preincubated with excess soluble IL-11 before addition to IL-11 coated plate

binding [1]: binds | binding [2]: binds | binding [3]: binds
B1: IL-11R-Ig fusion protein (Fc fusion, not shown: small tags and cut ends)
chain: SPCPQAWGPPGVQYGQPGRSVKLCCPGVTAGDPVSWFRDGEPKLLQGPDSGLGHELVLAQADSTDEGTYICQTLDGALGGTVTLQLGYPPARPVVSCQAADYENFSCTWSPSQISGLPTRYLTSYRKKTVLGADSQRRSPSTGPWPCPQDPLGAARCVVHGAEFWSQYRINVTEVNPLGASTRLLDVSLQSILRPDPPQGLRVESVPGYPRRLRASWTYPASWPCQPHFLLKFRLQYRPAQHPAWSTVEPAGLEEVITDAVAGLPHAVRVSARDFLDAGTWSTWSPEAWGTPSTGTIPKEIPAWGQLHTQPEVEPQVDSPAPPRPSLQPHPRLLDHRDSVEQ
